Reference: US20190127480A1
Positions count from the first letter of the chain named. No constants are given. Whether binding was seen depends on the method and setting. Some entries that bind do so weakly or less than the wild type.

The chains behind the UniProt entries cited, without tags or fusion partners. Where a name states a change or a piece, a line headed by the entry shows the natural chain unless it says otherwise.
UniProt Q04609: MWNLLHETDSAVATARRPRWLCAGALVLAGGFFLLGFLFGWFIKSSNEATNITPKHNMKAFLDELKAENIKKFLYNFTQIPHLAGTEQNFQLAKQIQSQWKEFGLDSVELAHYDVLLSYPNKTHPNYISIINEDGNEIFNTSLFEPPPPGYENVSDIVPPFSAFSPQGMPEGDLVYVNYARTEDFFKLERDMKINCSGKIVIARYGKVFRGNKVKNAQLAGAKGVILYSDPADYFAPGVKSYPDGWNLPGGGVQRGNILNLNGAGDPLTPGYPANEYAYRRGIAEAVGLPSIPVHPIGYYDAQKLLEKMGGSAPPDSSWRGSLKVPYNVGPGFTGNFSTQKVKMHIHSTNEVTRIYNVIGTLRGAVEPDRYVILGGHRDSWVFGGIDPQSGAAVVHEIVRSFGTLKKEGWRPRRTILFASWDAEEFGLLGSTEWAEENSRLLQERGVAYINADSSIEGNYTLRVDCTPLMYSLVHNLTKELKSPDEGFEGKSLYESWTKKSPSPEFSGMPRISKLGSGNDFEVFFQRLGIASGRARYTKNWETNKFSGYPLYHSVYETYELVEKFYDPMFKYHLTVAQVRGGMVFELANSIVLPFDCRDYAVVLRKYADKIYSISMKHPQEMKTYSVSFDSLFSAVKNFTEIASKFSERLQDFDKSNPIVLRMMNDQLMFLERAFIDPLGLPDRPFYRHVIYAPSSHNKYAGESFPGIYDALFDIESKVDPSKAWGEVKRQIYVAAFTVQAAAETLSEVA

B1: BSPSMA/CD3-900 (bispecific antibody, IgG4, V domains shown)
VH 1: QVQLVESGGGVVQPGRSLRLSCAASGFTFSSYGMHWVRQAPGKGLEWVAVISYAGNNKYYADSVKGRFTVSRDNSKKTLYLQMNSLRSEDTAVYYCAKDSYYDFLTDPDVLDIWGQGTMVTVSS
VH 2: EVQLVESGGGLVQPGRSLRLSCAASGFTFDDYSMHWVRQAPGKGLEWVSGISWNSGSKGYADSVKGRFTISRDNAKNSLYLQMNSLRAEDTALYYCAKDGSGYGKFYHYGLDVWGQGTTVTVSS
VL: DIQMTQSPSSLSASVGDSVTITCRASQSINNYLNWYQQKPGKAPKLLIYTASSLLSGVPSRFSGSGSGTDFTLTISGLHPEDFATYFCQQSFSTPPITFGQGTRLDIK
B2: BSPSMA/CD3-1100 (bispecific antibody, IgG4, V domains shown)
VH 1: B1 VH 1
VH 2: B1 VH 2 with D99Y, L111M
VL: B1 VL
B3: BSPSMA/CD3-005 (bispecific antibody, IgG4, V domains shown)
VH 1: B1 VH 1
VH 2: B1 VH 2 with K58I, D99Y, H108Y, L111M
VL: B1 VL
B4: BSPSMA/CD3-1400 (bispecific antibody, IgG4, V domains shown)
VH 1: B1 VH 1
VH 2: B1 VH 2 with K58I, D99Y, L111M
VL: B1 VL
B5: BSPSMA/CD3-1600 (bispecific antibody, IgG4, V domains shown)
VH 1: B1 VH 1
VH 2: B1 VH 2 with L111M
VL: B1 VL
B6: BSPSMA/CD3-1500 (bispecific antibody, IgG4, V domains shown)
VH 1: B1 VH 1
VH 2: B1 VH 2 with H108Y
VL: B1 VL
B7: BSPSMA/CD3-1300 (bispecific antibody, IgG4, V domains shown)
VH 1: B1 VH 1
VH 2: B1 VH 2 with K58I, D99Y, H108Y
VL: B1 VL
B8: BSPSMA/CD3-1900 (bispecific antibody, IgG4, V domains shown)
VH 1: B1 VH 1
VH 2: B1 VH 2 with K58I, L111M
VL: B1 VL
B9: BSPSMA/CD3-1700 (bispecific antibody, IgG4, V domains shown)
VH 1: B1 VH 1
VH 2: B1 VH 2 with D99Y, H108Y, L111M
VL: B1 VL
B10: BSPSMA/CD3-1200 (bispecific antibody, IgG4, V domains shown)
VH 1: B1 VH 1
VH 2: B1 VH 2 with K58I
VL: B1 VL
B11: BSPSMA/CD3-2100 (bispecific antibody, IgG4, V domains shown)
VH 1: B1 VH 1
VH 2: B1 VH 2 with H108Y, L111M
VL: B1 VL
B12: BSPSMA/CD3-1000 (bispecific antibody, IgG4, V domains shown)
VH 1: B1 VH 1
VH 2: B1 VH 2 with D99Y, H108Y
VL: B1 VL

target: soluble heterodimeric hCD3ε/δ.mFc protein (human); experiment: SPR, 37 C, antigen-capture format

Row | binding | Binder
1 | binds | B1
2 | binds | B2
3 | binds | B3
4 | binds | B4
5 | binds | B5
6 | binds | B6
7 | binds | B7
8 | binds | B8
9 | binds | B9
10 | binds | B10
11 | binds | B11
12 | binds | B12

target: human PSMA on PSMA-expressing cells (human) (UniProt Q04609); experiment: FACS on PSMA-expressing cells

Row | binding | Binder
13 | binds | B1
14 | binds | B2
15 | binds | B3
16 | binds | B4
17 | binds | B5
18 | binds | B6
19 | binds | B7
20 | binds | B8
21 | binds | B9
22 | binds | B10
23 | binds | B11
24 | binds | B12
